Data reported in PubChem BioAssay AID2549 (National Center for Advancing Translational Sciences (NCATS), 2010).
Out of some 240,000 compounds screened, about 1,300 (0.54%) were called active. Inconclusive results, whose numbers are uncertain, are shown with a selection of clear calls. Calls come from the whole dose curve; as a rule, active = well fitted inhibition curve with a large enough effect; inconclusive = small, poorly fitted or top-dose-only effect; inactive = flat fitted curve, though single readings scatter. Potencies beside an inconclusive call are fits to weak or partial responses and may not hold up. Where a SMILES comes first, the peptide text is derived from it. [ ]: non-standard residue; d: D form.
Note: nearly all actives have a fitted effect of over 30% in size.
Potency is the fitted concentration of half-maximal effect.
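Throughout, for activity, negative = inhibition: plate controls were vehicle for no effect and no enzyme for full effect.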

Amino acid sequences for entries named in this document (tags omitted). A change or cut given only in a name is not applied to a line headed by its entry.
UniProt P46063: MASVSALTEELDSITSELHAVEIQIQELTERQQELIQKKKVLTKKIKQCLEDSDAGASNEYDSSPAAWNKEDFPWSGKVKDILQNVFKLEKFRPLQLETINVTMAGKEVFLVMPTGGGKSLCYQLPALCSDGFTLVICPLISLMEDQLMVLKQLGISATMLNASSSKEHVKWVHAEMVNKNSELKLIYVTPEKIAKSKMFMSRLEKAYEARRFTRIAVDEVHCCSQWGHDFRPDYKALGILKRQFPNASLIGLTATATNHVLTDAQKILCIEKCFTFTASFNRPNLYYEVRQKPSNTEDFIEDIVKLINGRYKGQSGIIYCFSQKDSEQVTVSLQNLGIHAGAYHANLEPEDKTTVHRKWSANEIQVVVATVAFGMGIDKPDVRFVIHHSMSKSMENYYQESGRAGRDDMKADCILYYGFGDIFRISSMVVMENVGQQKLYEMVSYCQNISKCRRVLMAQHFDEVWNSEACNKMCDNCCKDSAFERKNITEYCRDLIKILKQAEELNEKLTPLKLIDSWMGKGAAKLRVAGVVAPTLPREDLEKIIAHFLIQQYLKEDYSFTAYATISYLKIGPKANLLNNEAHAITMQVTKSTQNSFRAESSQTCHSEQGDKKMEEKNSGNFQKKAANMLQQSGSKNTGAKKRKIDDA

These compounds were tested against ATP-dependent DNA helicase Q1 (Homo sapiens) (UniProt P46063) (assay: qHTS Assay for Inhibitors of RecQ-Like Dna Helicase 1 (RECQ1)). Conditions: RECQ1 DNA unwinding, red fluorescence kinetic read; activity, negative = inhibition: at 57.3 µM (top of the series); series mostly up to 57.3 µM.
Summary of the method: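 RECQ1T1 50 nM; forked duplex (20 bp + 30-nt ss tails) 200 nM, ATP 2 mM final; pH 8.0, 2 mM MgCl2, 2.5 ug/ml poly(dI-dC); 15 min compound preincubation; discontinuous kinetic read over 2 h at RT.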
With `Cc1csc(NC(=O)c2cc(C)oc2C)n1` the Potency was inconclusive: 0.141 µM [inhibitor, full curve, poor fit].
For `CCCCC/C=C\C[C@@H]1O[C@H]1C(O)/C=C\C/C=C\CCCC(=O)O` (some centres not stated), the “activity, negative = inhibition” value was inactive: -5.4%.
In the case of `CC(C)c1ccc(NC(=S)NC2CC3C=CC2C3)cc1` (configuration not stated), the Potency is reported as inconclusive: 39.8 µM [inhibitor, single point].
With `Cc1ccccc1CSc1nnc(NC(=O)Cc2cccs2)s1` the Potency was active: 39.8 µM.
With `CC12CCC(C(=O)N(NC(=O)c3ccccc3O)C1=O)C2(C)C` (configuration not stated) the Potency was active: 39.8 µM.
For `O=C(N=Nc1c(O)[nH]c2ccc(F)cc12)C1COc2ccccc2O1` (configuration not stated), the Potency was inconclusive: 0.158 µM [inhibitor, partial curve, poor fit].
For `CN(C)c1ccc(O)c2c1CC1CC3[C@@H](N(C)C)C(=O)C(C(N)=O)=C(O)[C@]3(O)C(=O)C1=C2O` (some centres not stated), the Potency was inconclusive: 39.8 µM [inhibitor, single point].
For `CCOC(=O)CC1C(=O)NCCN1c1nc2c(C)cccn2c(=O)c1/C=C1\SC(=S)N(CC(C)C)C1=O` (configuration not stated), the Potency was inconclusive: 15.8 µM [inhibitor, partial curve].
`O=C(NCc1ccco1)[C@@H]1CSC2c3ccccc3C(=O)N21` (some centres not stated) was tested, and the Potency was inconclusive: 28.2 µM [inhibitor, single point].
For `O=C(NCc1cccnc1)C(=O)NCC1OCCN1S(=O)(=O)c1cc(F)ccc1F` (configuration not stated), the Potency was inconclusive: 31.6 µM [inhibitor, single point].
For `CC1CC=CC2C1C(=O)N(Cc1ccccc1)C2c1ccc(-c2cc3ccccc3s2)cc1F` (configuration not stated), the “activity, negative = inhibition” value was inactive: 14%.
`COc1cccc2c1C(=O)c1c(O)c3c(c(O)c1C2=O)C[C@@](O)(C(=O)CO)C[C@@H]3OC1C[C@@H](N)[C@H](O)[C@H](C)O1` (some centres not stated) was tested, and the Potency was active: 15.8 µM.
For `COc1cc(/C=C2\SC(c3ccccc3)=NC2=O)cc(Cl)c1O`, the “outcome” value was “inactive”.
In the case of `c1csc(Cc2nn3c(-c4n[nH]c5c4CCC5)nnc3s2)c1`, the Potency is reported as active: 14.1 µM.
`NS(=O)(=O)c1ccc(NC(=O)c2ccc(-c3ccccc3)cc2)cc1` was tested, and the Potency was inconclusive: 11.2 µM [inhibitor, partial curve, poor fit].
With `O=C(O)C(=O)/C(=C\c1ccc([N+](=O)[O-])cc1)c1ccc2ccccc2n1` the Potency was inconclusive: 0.794 µM [inhibitor, single point].
In the case of `Oc1ccc(C=Nc2ccc3ncccc3c2)c(O)c1`, the Potency is reported as inconclusive: 8.91 µM [inhibitor, single point].
For `C=C(C)C(=O)Nc1cccc(C2=NOC3(C2)C[C@@H](C(N)=O)N(C(=O)CC(c2ccccc2)c2ccccc2)C3)c1` (some centres not stated), the Potency was inconclusive: 31.6 µM [inhibitor, single point].
For `O=C(O)C(Cc1ccccc1)N1C(=O)/C(=C/C=C/c2ccco2)SC1=S` (configuration not stated), the Potency was active: 2.82 µM.
For `CCCC(=O)c1cc(O)c(O)cc1O`, the Potency was active: 1.12 µM.
For `CCC(=O)Nc1ccc(C(=O)CSc2nnc(-c3ccccc3F)n2CCc2ccccc2)cc1`, the Potency was inconclusive: 39.8 µM [inhibitor, single point].
With `O=C(CSc1nc2ccccc2n1CCc1ccccc1)c1ccc(O)c(O)c1` the Potency was active: 7.08 µM.
With `CCN(CC)S(=O)(=O)c1ccc(N/N=C/c2ccccc2OCC(=O)O)c([N+](=O)[O-])c1` the Potency was inconclusive: 39.8 µM [inhibitor, single point].
In the case of `Cc1ccc(C)c2[nH]c(=O)c(CN(Cc3ccc4c(c3)OCO4)Cc3nnnn3Cc3ccco3)cc12`, the Potency is reported as active: 22.4 µM.
`Cc1ccc(CNc2ncnc3ccc(-c4c(C)noc4C)cc23)cc1` was tested, and the “outcome” value was “inactive”.
In the case of `CCN(c1ccccc1)S(=O)(=O)c1cc(C(=O)O)ccc1C`, the Potency is reported as active: 28.2 µM.
In the case of `O=C(Nc1ccccc1)N(Cc1cccnc1)Cc1ccco1`, the Potency is reported as inconclusive: 39.8 µM [inhibitor, single point].
In the case of `O=C1c2ccccc2-c2onc3ccc(NCc4ccco4)c1c23`, the Potency is reported as active: 20 µM.
For `C#CCOCCOCCOCCNc1nc(N2CCN(C(=O)[C@H](Cc3cc4ccccc4[nH]3)n3cc([C@@H](N)Cc4ccc(O)cc4)nn3)CC2)nc(N2CCN(C(=O)[C@H](Cc3cc4ccccc4[nH]3)n3cc([C@@H](N)CC(C)C)nn3)CC2)n1`, the Potency was inconclusive: 35.5 µM [inhibitor, single point].
In the case of `C=CCCn1c(Cl)c(C#N)sc1=O`, the “activity, negative = inhibition” value is reported as inactive: -1.73%.
In the case of `COc1ccccc1-n1c(SCc2cc(=O)oc3cc(O)ccc23)nc2ccccc2c1=O`, the Potency is reported as inconclusive: 15.8 µM [inhibitor, partial curve, poor fit].
In the case of `COc1nc(-c2ccc(Cl)cc2)ccc1-c1noc(-c2cccs2)n1`, the Potency is reported as inconclusive: 6.31 µM [inhibitor, single point].
In the case of `Nc1cccc(N)c1`, the Potency is reported as inconclusive: 31.6 µM [inhibitor, partial curve].
For `COc1ccc(S(=O)(=O)N2CCOCC2)cc1N=Nc1sc(N)nc1-c1ccccc1`, the Potency was inconclusive: 35.5 µM [inhibitor, single point].
`Cc1cc(C(=O)COC(=O)C2CCN(C(=O)c3ccc(Cl)cc3)CC2)c(C)n1CC1CCCO1` (configuration not stated) was tested, and the Potency was inconclusive: 0.501 µM [inhibitor, full curve].
For `Cc1cc(C)n(CCC(=O)N/N=C/c2ccccc2O)n1`, the “activity, negative = inhibition” value was inactive: 0.808%.
With `CCN(CC)C(=O)CSc1nnc(-c2ccccc2)c(-c2ccccc2)n1` the Potency was inconclusive: 4.47 µM [inhibitor, partial curve].
With `O=C(O)c1cc(Br)ccn1` the “activity, negative = inhibition” value was inactive: -7.05%.
With `Cc1cc(/C=C2/NC(=S)NC2=O)c(C)n1-c1cccnc1` the Potency was inconclusive: 1.12 µM [inhibitor, full curve].
For `COc1cc(-c2csc(N3CCOCC3)n2)cc(OC)c1OC`, the “outcome” value was “inactive”.
In the case of `CNc1ccccc1C(C)(C)c1cc(-c2cccc(OC)c2)no1`, the Potency is reported as inconclusive: 35.5 µM [inhibitor, single point].
With `CC(=O)[C@]1(O)Cc2c(O)c3c(c(O)c2[C@@H](O[C@H]2C[C@H](N)[C@H](O)[C@H](C)O2)C1)C(=O)c1c(O)cccc1C3=O` the Potency was active: 28.2 µM.
For `Cc1cc(C)c([N+](=O)[O-])cc1-c1ccc(/C=N/c2c(-c3ccco3)nc3ccccn23)o1`, the Potency was inconclusive: 25.1 µM [inhibitor, single point].
In the case of `C/C(=N\NC(=O)c1ccccc1)c1nc2ccccc2n1C`, the Potency is reported as inconclusive: 31.6 µM [inhibitor, partial curve].
`O=C(N/N=C/C=C\c1ccco1)c1ccccn1` was tested, and the Potency was inconclusive: 31.6 µM [inhibitor, single point].
In the case of `Cc1cccc(Nc2ccc(NCc3ccccc3)nn2)c1`, the Potency is reported as inconclusive: 39.8 µM [inhibitor, partial curve].
`OC(COC1CCCCC1)CN1CCN(c2ccccc2)CC1` (configuration not stated) was tested, and the “activity, negative = inhibition” value was inactive: 0.302%.
With `Cc1ccc(-c2csc(NC(=O)C3=NN(c4ccccc4)C(=O)CC3)n2)cc1` the Potency was inconclusive: 39.8 µM [inhibitor, single point].
`O=C(CSc1nc(-c2ccccc2)nc2c1Cc1ccccc1O2)Nc1ccc(C(=O)O)cc1` was tested, and the Potency was active: 8.91 µM.
In the case of `Cc1c(O)ccc(/C=N/Nc2nc(-c3cccnc3)nc3ccccc23)c1O`, the Potency is reported as active: 20 µM.
In the case of `Cc1cccc(OC(C)C(=O)NCc2ccc(S(N)(=O)=O)cc2)c1` (configuration not stated), the Potency is reported as inconclusive: 1.12 µM [inhibitor, full curve].
For `CC(=O)OCCNc1cc(SCc2ccco2)c2nonc2c1[N+](=O)[O-]`, the Potency was active: 7.08 µM.
In the case of `COc1ccc(C)cc1S(=O)(=O)n1ccnc1C`, the Potency is reported as inconclusive: 4.47 µM [inhibitor, full curve].
In the case of `CC(C)CCNC(=O)C1C2C=CC3(CN(Cc4ccccc4Cl)C(=O)C13)O2` (configuration not stated), the Potency is reported as inconclusive: 35.5 µM [inhibitor, partial curve].
`Cc1cccc(S(=O)(=O)c2c(N)n(/N=C/c3ccco3)c3nc4ccccc4nc23)c1` was tested, and the Potency was inconclusive: 35.5 µM [inhibitor, single point].
`CN1/C(=C\C(=S)Nc2ccccc2)C(C)(C)c2ccccc21` was tested, and the Potency was inconclusive: 31.6 µM [inhibitor, single point].
With `CC(C)[C@H](NC(=O)[C@@H](Cc1c[nH]c2ccccc12)NC(=O)[C@H](Cc1ccc(O)cc1)NC(=O)[C@@H](N)CC(=O)O)C(=O)N[C@H](Cc1c[nH]c2ccccc12)C(=O)N[C@H](Cc1c[nH]c2ccccc12)C(=O)N[C@@H](CCCCN)C(N)=O` (H-DY[dW]V[dW][dW]K-NH2) the Potency was active: 20 µM.
`O=C(O)/C=C/C(=O)N1Cc2cc3ccccc3nc2C1` was tested, and the Potency was inconclusive: 35.5 µM [inhibitor, single point].
`COCCCn1c(=O)/c(=C\c2ccccc2OC(C)C)s/c1=C(/C#N)C(=O)Nc1ccc(C(=O)O)cc1` was tested, and the Potency was inconclusive: 35.5 µM [inhibitor, single point].
In the case of `CN1C2CCC1CC(OC(=O)c1c[nH]c3ccccc13)C2` (configuration not stated), the Potency is reported as inconclusive: 35.5 µM [inhibitor, single point].
In the case of `CCn1c(CSc2nnc(-c3ccncc3)n2CCOC)nc2cc(C(=O)O)ccc21`, the Potency is reported as active: 22.4 µM.
With `Cc1cc(/C=N/NC(N)=S)c(O)c(/C=N/NC(N)=S)c1` the “outcome” value was “inactive”.
In the case of `C=C1CCN(C(C)C(=O)OC)S(=O)(=O)c2ccccc21` (configuration not stated), the Potency is reported as inconclusive: 1.41 µM [inhibitor, full curve].
`CCOc1cc(/C=N/N=C2/NC(=O)C(CC(=O)O)S2)ccc1OCc1ccc(Cl)cc1Cl` (configuration not stated) was tested, and the “outcome” value was “inactive”.
For `Cc1cccc(N2CCN(S(=O)(=O)c3ccc4c(c3)CCN4C(=O)CCC(=O)O)CC2C)c1` (configuration not stated), the “activity, negative = inhibition” value was inactive: -8.05%.
For `COc1ccc2[nH]c3c(C)c4cc[n+](C)cc4c(C)c3c2c1`, the Potency was inconclusive: 20 µM [inhibitor, partial curve, poor fit].
For `Cc1ccc(C)n1Cc1ccc(C(=O)O)cc1`, the Potency was active: 7.08 µM.
